The full ranking holds about 33,000 sequences; the median of “E-score (-0.5 to 0.5)” is about -0.0014, and the highest 2% start at about 0.25. This is one part of the list.
These sequences were tested against T1, Cad1 (UniProt P24813) (assay: PBM E-score (8-mer binding enrichment) (E-score (-0.5 to 0.5)); higher = stronger / more preferred TF binding). Details: protein concentration: 100 nM; construct: GST-full length.
T1 sequence: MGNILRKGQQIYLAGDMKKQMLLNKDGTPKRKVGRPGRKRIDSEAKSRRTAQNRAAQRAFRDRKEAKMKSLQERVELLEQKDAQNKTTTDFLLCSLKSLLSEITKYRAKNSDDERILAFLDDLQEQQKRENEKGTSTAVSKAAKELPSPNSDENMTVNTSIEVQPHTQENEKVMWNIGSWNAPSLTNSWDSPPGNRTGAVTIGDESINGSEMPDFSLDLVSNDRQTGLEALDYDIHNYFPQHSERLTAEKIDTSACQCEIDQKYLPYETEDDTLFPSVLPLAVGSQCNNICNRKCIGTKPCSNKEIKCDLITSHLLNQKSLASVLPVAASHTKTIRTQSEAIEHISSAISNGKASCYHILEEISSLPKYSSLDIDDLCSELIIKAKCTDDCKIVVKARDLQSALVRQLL
Procedure, shortened: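 Bound GST-tagged yeast transcription factors, applied at about 100-200 nM to double-stranded universal all-10-mer Agilent arrays, were detected with fluorescent anti-GST. Scans were normalised with masliner. A modified Wilcoxon-Mann-Whitney statistic, the E-score, was assigned to each ungapped eight-base word pooled with its reverse complement by the Universal PBM Analysis Suite.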
In the case of GCATATAC, the “PBM E-score” value is reported as 0.0034.
With ACGCGGTA the “PBM E-score” value was 0.0739.
With GTTCAGTA the “PBM E-score” value was 0.224.
With CCTGACCG the “PBM E-score” value was -0.23.
CGTTATCC was tested, and the “PBM E-score” value was 0.013.
CAACTCTG was tested, and the “PBM E-score” value was -0.202.
For AACAGACC, the “PBM E-score” value was 0.143.
For CTCGGATC, the “PBM E-score” value was 0.101.
With AAAGATTT the “PBM E-score” value was -0.0295.
In the case of CATTCGCC, the “PBM E-score” value is reported as -0.232.
In the case of CCCTTTTC, the “PBM E-score” value is reported as -0.266.
With CTCGGGGC the “PBM E-score” value was -0.323.
In the case of AGAATCCC, the “PBM E-score” value is reported as 0.138.
CTCCATTC was tested, and the “PBM E-score” value was -0.144.
With CACAGTAC the “PBM E-score” value was 0.0719.
For CTACGGTC, the “PBM E-score” value was -0.215.
In the case of AAATCATT, the “PBM E-score” value is reported as 0.148.
For CACAACAC, the “PBM E-score” value was 0.12.
For CAGTCCGG, the “PBM E-score” value was -0.229.
With ATTGCTCC the “PBM E-score” value was -0.0784.
For GTATAGCA, the “PBM E-score” value was 0.197.
For CCTTCCAA, the “PBM E-score” value was -0.0893.
In the case of CATAGGCG, the “PBM E-score” value is reported as -0.107.
With TACACCTA the “PBM E-score” value was 0.132.
With GCAGGGAC the “PBM E-score” value was -0.0954.
With GAACGCTA the “PBM E-score” value was -0.231.
GCTAGAGC was tested, and the “PBM E-score” value was -0.15.
For ACGGGCAT, the “PBM E-score” value was -0.145.
For GGGCAAAA, the “PBM E-score” value was -0.0364.
In the case of ATATCCGC, the “PBM E-score” value is reported as 0.108.
For AGTTGTTC, the “PBM E-score” value was 0.0834.
CAAAAAGG was tested, and the “PBM E-score” value was -0.127.
For CTAATGTC, the “PBM E-score” value was 0.134.
With AGACTGTG the “PBM E-score” value was -0.0862.
With GTACGGAA the “PBM E-score” value was 0.0941.
CAGCCTGG was tested, and the “PBM E-score” value was -0.175.
With ATATCGGA the “PBM E-score” value was 0.0646.
For TACCCGTA, the “PBM E-score” value was -0.114.
In the case of CTCCTACC, the “PBM E-score” value is reported as -0.236.
ATCGCCGA was tested, and the “PBM E-score” value was 0.0544.
AGTCCCCA was tested, and the “PBM E-score” value was -0.26.
AAAAGGGT was tested, and the “PBM E-score” value was -0.0785.
In the case of TCGGATAA, the “PBM E-score” value is reported as 0.132.
For TCTTATAA, the “PBM E-score” value was 0.0694.
In the case of CTTCGCGA, the “PBM E-score” value is reported as 0.143.
For CGCGTAAC, the “PBM E-score” value was 0.0624.
For CAGCGCTC, the “PBM E-score” value was 0.153.
For TCACTCCA, the “PBM E-score” value was 0.0562.
For ATTAAAGC, the “PBM E-score” value was 0.0329.
With CGGTCAGA the “PBM E-score” value was 0.0228.
In the case of AGCAGTTC, the “PBM E-score” value is reported as -0.0686.
AAATGGAC was tested, and the “PBM E-score” value was 0.234.
In the case of TCAGGTAA, the “PBM E-score” value is reported as 0.0161.
In the case of CGTTATAA, the “PBM E-score” value is reported as 0.163.
For TACGGGGA, the “PBM E-score” value was -0.157.
ATCAGCCA was tested, and the “PBM E-score” value was -0.126.
For AGGCCATC, the “PBM E-score” value was -0.0684.
In the case of AGGTAACT, the “PBM E-score” value is reported as 0.011.
In the case of CCTCAAGA, the “PBM E-score” value is reported as -0.172.
For AAAGAGAA, the “PBM E-score” value was -0.00557.
ACCAACAA was tested, and the “PBM E-score” value was 0.185.
CCCTTTCC was tested, and the “PBM E-score” value was -0.177.
For TCAACGAA, the “PBM E-score” value was 0.0907.
With ATGGCCAG the “PBM E-score” value was 0.273.
AGCGAAAA was tested, and the “PBM E-score” value was -0.0296.
In the case of ACCAGCGG, the “PBM E-score” value is reported as -0.15.
CCGTGATC was tested, and the “PBM E-score” value was 0.00451.
With ACCTTGCA the “PBM E-score” value was -0.0166.
With GTATGCCA the “PBM E-score” value was -0.16.
CTTGTTTA was tested, and the “PBM E-score” value was 0.0129.
ACTTTCCC was tested, and the “PBM E-score” value was -0.0753.
For AACGCGGT, the “PBM E-score” value was 0.0752.
For CAATCTTA, the “PBM E-score” value was 0.023.
For CACCCAAC, the “PBM E-score” value was -0.136.
ATTGCGTC was tested, and the “PBM E-score” value was 0.159.
For AACTTATG, the “PBM E-score” value was 0.0338.
For CGTAATTC, the “PBM E-score” value was 0.143.
For TTGAAAAA, the “PBM E-score” value was -0.00366.
In the case of AAAGTCTT, the “PBM E-score” value is reported as 0.0329.
For ACTCTACT, the “PBM E-score” value was 0.0904.
In the case of ACGACGAA, the “PBM E-score” value is reported as 0.176.
For AGAGAAGA, the “PBM E-score” value was -0.143.
For CCCCCAGA, the “PBM E-score” value was -0.419.
For ATAAGCTA, the “PBM E-score” value was -0.0126.
In the case of CGCCAGTC, the “PBM E-score” value is reported as -0.161.
In the case of ACTTGCAG, the “PBM E-score” value is reported as -0.132.
With CTTAACCC the “PBM E-score” value was -0.104.
With AAGTCAGA the “PBM E-score” value was -0.0585.
For CACGGTCA, the “PBM E-score” value was 0.0957.
AAGCTTGA was tested, and the “PBM E-score” value was -0.198.
For ACCTACTC, the “PBM E-score” value was 0.0147.
AGCCGGCC was tested, and the “PBM E-score” value was 0.0891.
With GCCCAAAC the “PBM E-score” value was 0.0902.
For AGTATGTC, the “PBM E-score” value was 0.135.
For GAAATATC, the “PBM E-score” value was 0.139.
With AACTGACT the “PBM E-score” value was 0.0993.
With ATTAGATC the “PBM E-score” value was 0.03.
For GCAAGCTA, the “PBM E-score” value was 0.083.
CACCTACA was tested, and the “PBM E-score” value was 0.057.
In the case of ATCGGATG, the “PBM E-score” value is reported as 0.0369.
GCGTACAC was tested, and the “PBM E-score” value was -0.00619.
With CTTGCAGC the “PBM E-score” value was -0.057.
AACGTAAG was tested, and the “PBM E-score” value was 0.151.
In the case of CAATACTG, the “PBM E-score” value is reported as -0.146.
With ATCTTTAC the “PBM E-score” value was 0.106.
With GATTCTGA the “PBM E-score” value was 0.119.
With TCCTGAGA the “PBM E-score” value was -0.103.
AGAGGATC was tested, and the “PBM E-score” value was -0.18.
For CCCAAAAA, the “PBM E-score” value was -0.0252.
For TAATCGTA, the “PBM E-score” value was 0.193.
In the case of CCAAGAAC, the “PBM E-score” value is reported as 0.0242.
AGTTCAAT was tested, and the “PBM E-score” value was -0.104.
ACCTAATG was tested, and the “PBM E-score” value was -0.323.
CCGCCTAC was tested, and the “PBM E-score” value was 0.0652.
For GTCCACAA, the “PBM E-score” value was -0.0167.
With GCACACAC the “PBM E-score” value was 0.0834.
With AAGTAATA the “PBM E-score” value was 0.105.
In the case of TTAGCTAA, the “PBM E-score” value is reported as 0.298.
ACTACAAA was tested, and the “PBM E-score” value was 0.0648.
With ATGTCGAG the “PBM E-score” value was -0.0317.
With GGTCGAGA the “PBM E-score” value was -0.149.
With ACGATCCG the “PBM E-score” value was 0.202.
ATTGCGTG was tested, and the “PBM E-score” value was 0.021.
CGGTCCGC was tested, and the “PBM E-score” value was -0.101.
With ACCACAAG the “PBM E-score” value was -0.17.
In the case of CGGCTTGC, the “PBM E-score” value is reported as 0.136.
In the case of AACACAGC, the “PBM E-score” value is reported as 0.281.
With ATCTATAC the “PBM E-score” value was -0.0819.
CCACTCCC was tested, and the “PBM E-score” value was -0.306.
For CTCAACAC, the “PBM E-score” value was 0.099.
For CAGGCGGC, the “PBM E-score” value was -0.105.
For CATATCGA, the “PBM E-score” value was 0.113.
GGTTGGGA was tested, and the “PBM E-score” value was -0.211.
In the case of ACCGTACT, the “PBM E-score” value is reported as -0.02.
AATCCTCT was tested, and the “PBM E-score” value was -0.191.
CACTTCAG was tested, and the “PBM E-score” value was 0.0433.
ACACTTAT was tested, and the “PBM E-score” value was -0.0118.
CTGACCCC was tested, and the “PBM E-score” value was -0.356.
ACCGTTGA was tested, and the “PBM E-score” value was -0.0844.
AGCTAGCC was tested, and the “PBM E-score” value was -0.0583.
In the case of CCTCAACC, the “PBM E-score” value is reported as -0.0853.
For CTCTCGGC, the “PBM E-score” value was -0.251.
For AAGTGGGA, the “PBM E-score” value was 0.146.
ACTCCGTC was tested, and the “PBM E-score” value was 0.14.
GCCCGAAC was tested, and the “PBM E-score” value was -0.0307.
In the case of AGTCCCTC, the “PBM E-score” value is reported as -0.343.
GGAAGGAA was tested, and the “PBM E-score” value was -0.129.
For ACTTGTGA, the “PBM E-score” value was -0.00176.
ATTCGAGA was tested, and the “PBM E-score” value was 0.145.
For AAGGTATG, the “PBM E-score” value was -0.0892.
AGAAAGCA was tested, and the “PBM E-score” value was 0.2.
For TGAAAACA, the “PBM E-score” value was 0.131.
For AACACAAG, the “PBM E-score” value was -0.0257.
In the case of GGTAGTAC, the “PBM E-score” value is reported as -0.0112.
For GACATCAA, the “PBM E-score” value was 0.182.
In the case of CTCCCGCA, the “PBM E-score” value is reported as -0.046.
With ACCCACCC the “PBM E-score” value was 0.0404.
For AGTACGTG, the “PBM E-score” value was -0.145.
In the case of GGTGCCCA, the “PBM E-score” value is reported as -0.106.
With ATCAACGC the “PBM E-score” value was 0.153.
In the case of ATACAGAG, the “PBM E-score” value is reported as -0.104.
In the case of GCCGCAAC, the “PBM E-score” value is reported as 0.0201.
With CTTGCAAC the “PBM E-score” value was 0.171.
For GCTGACAA, the “PBM E-score” value was 0.412.
AAAATCCC was tested, and the “PBM E-score” value was 0.0089.
For GTACTAGA, the “PBM E-score” value was 0.127.
For AAGCCTGA, the “PBM E-score” value was -0.0514.
With ACTTAGTA the “PBM E-score” value was 0.213.
For GAACCTAC, the “PBM E-score” value was -0.0734.
In the case of ACATCGGG, the “PBM E-score” value is reported as -0.191.
In the case of CGCGGTCA, the “PBM E-score” value is reported as 0.0964.
With ACTTACAG the “PBM E-score” value was 0.0368.

From the supplement of paper PMC3334620
